{"source": "patent US11530240B2", "about": "“Catheter injectable cyclic peptide pro-gelators for myocardial tissue engineering” (The Regents of the University of California, priority 2017, dated 2022)"}
{"experiment": "Experimental circular dichroism (CD) of SAPs", "format": "physicochemical", "details": "500 μM SAP in 10 mM Tris, pH 7.4"}
{"substance": "(KFDF)3 (SEQ ID NO: 4) (KFDFKFDFKFDF) [KFDF (SEQ ID NO:1), unmodified SAP, analogue of KLDL with Phe for Leu]", "Obs. CD Inference (β-sheet orientation)": "Antiparallel"}
{"substance": "(KLDL)3 (SEQ ID NO: 3) (KLDLKLDLKLDL) [KLDL (SEQ ID NO:5), reference compound]", "Obs. CD Inference (β-sheet orientation)": "antiparallel"}
{"substance": "C(KFDF)3PLGLAGC (SEQ ID NO: 7) (CKFDFKFDFKFDFPLGLAGC) [KFDF (SEQ ID NO:1)Linear, modified linear SAP primed for cyclization, no fluorescent label]", "Obs. CD Inference (β-sheet orientation)": "parallel", "Obs. CD π→π* Peak": "Blue-shifted"}
{"substance": "C(KLDL)3PLGLAGC (SEQ ID NO: 6) (CKLDLKLDLKLDLPLGLAGC) [KLDL (SEQ ID NO:5)Linear, modified linear SAP primed for cyclization, no fluorescent label]", "Obs. CD Inference (β-sheet orientation)": "Parallel", "Obs. CD π→π* Peak": "Blue-shifted"}
{"substance": "LAG(KFDF)3PLG (SEQ ID NO: 9) (LAGKFDFKFDFKFDFPLG) [KFDF (SEQ ID NO:1)Control, control SAP representing enzymatically cleaved progelator with flanking substrate residues]", "Obs. CD Inference (β-sheet orientation)": "Parallel", "Obs. CD π→π* Peak": "Blue-shifted"}
{"substance": "LAG(KLDL)3PLG (SEQ ID NO: 8) (LAGKLDLKLDLKLDLPLG) [KLDL (SEQ ID NO:5)Control, control SAP representing enzymatically cleaved progelator with flanking substrate residues]", "Obs. CD Inference (β-sheet orientation)": "Parallel", "Obs. CD π→π* Peak": "Blue-shifted"}
